Assay results taken from article PMC3787007.

Amino acid sequences for entries named in this document (tags omitted). A change or cut given only in a name is not applied to a line headed by its entry.
UniProt Q9Y165: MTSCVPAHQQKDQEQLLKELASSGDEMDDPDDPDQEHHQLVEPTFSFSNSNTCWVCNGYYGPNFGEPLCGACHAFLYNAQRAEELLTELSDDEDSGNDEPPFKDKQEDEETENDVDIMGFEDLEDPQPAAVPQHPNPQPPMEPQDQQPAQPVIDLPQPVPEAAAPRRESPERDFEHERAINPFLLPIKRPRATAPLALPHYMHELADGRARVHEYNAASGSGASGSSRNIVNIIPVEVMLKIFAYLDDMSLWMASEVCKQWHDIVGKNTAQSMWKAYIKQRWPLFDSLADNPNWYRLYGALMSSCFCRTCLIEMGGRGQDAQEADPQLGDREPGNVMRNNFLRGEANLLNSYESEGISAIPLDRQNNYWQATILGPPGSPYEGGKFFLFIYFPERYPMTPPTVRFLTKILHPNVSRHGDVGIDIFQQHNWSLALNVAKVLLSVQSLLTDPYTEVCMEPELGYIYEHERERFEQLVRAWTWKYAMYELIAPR
UniProt O77430: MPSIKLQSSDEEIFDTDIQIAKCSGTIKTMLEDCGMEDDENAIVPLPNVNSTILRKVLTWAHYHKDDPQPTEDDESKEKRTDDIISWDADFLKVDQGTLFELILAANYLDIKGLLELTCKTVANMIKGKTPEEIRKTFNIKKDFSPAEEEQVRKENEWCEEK

Molecular target: Morgue:3xFLAG (Drosophila) (UniProt Q9Y165)
Assay: co-IP; lysate of whole adult flies on M2 anti-FLAG resin; anti-SkpA and anti-ubiquitin Western blots of the eluate

SkpA (from UniProt O77430 1-162) was tested, and the binding was “binds”.

These are yes or no findings as the source states them, for the method shown. Binding seen in cells or lysates may run through a third protein. Binding calls can cover weak binding; strength is not graded here.
